# In the supplement of paper PMC5949888:
# Most values lie at the floor of the assay. Slopes are relative: functional sequences can read slightly below zero.
# System: Saccharomyces cerevisiae PS128 hsf1 delta, HSF1(1-493) fusion
# Assay: growth estimate (transactivation domain function in HSF1 fusion, heat-shock survival) (a.u. (slope of normalised read count over time)); higher = stronger growth at 37°C, i.e. more transactivation activity
# Details: library: random library
row,Substance,growth estimate
1,LCFRRRLESSPRFITCMVLN,< -0.25
2,LCHIKNIAKLR,< -0.25
3,LCHWSFTMVT,< -0.25
4,LCICKELLRHSLDSLKPWEQ,< -0.25
5,LCIDQ,< -0.25
6,LCIVACTRLRNADLLSGAVT,< -0.25
7,LCKTKQ,< -0.25
8,LCKYAVRNVSLRYAYESDLT,0.0112
9,LCLEHDGPQ,< -0.25
10,LCLEIRPRARGRTTLDLHGP,< -0.25
11,LCLEKWSPIRVMAYRRPEL,< -0.25
12,LCLGTILPWRLKRLWSGVPG,< -0.25
13,LCLPAGTHKAIVSKDFI,< -0.25
14,LCLQDHMIDEDQGGAGNASN,< -0.25
15,LCLRYSGRS,< -0.25
16,LCLSTLSQLCLAEHWPRAWS,-0.246
17,LCLYLACNGSHVYQRSDAVR,< -0.25
18,LCMDKSVADLSKCPVGY,< -0.25
19,LCMIAAA,< -0.25
20,LCNTAGILNYPSASRCGLNG,< -0.25
21,LCNTDWYYRFRRPRIAGRHE,< -0.25
22,LCPHSPFVANHGM,< -0.25
23,LCPKYRGHGASPW,< -0.25
24,LCPTQTFTRRIGRGSNLRLY,< -0.25
25,LCPYPNRTGLLRSKRPSPLE,< -0.25

row,Substance,growth estimate
1,LCQKHAIQRGLR,< -0.25
2,LCRCGNRAIELRDMFDQNVQ,< -0.25
3,LCRGDAPAGRTLRSRLSGRE,< -0.25
4,LCRLSGLRKSPTVLNRGARN,< -0.25
5,LCSA,< -0.25
6,LCSARHSSKQGCKGTLSSPK,< -0.25
7,LCSARLCHRSLNARGVDFPG,< -0.25
8,LCSGLVAGQIQTR,< -0.25
9,LCSQESAPSHQINIANST,< -0.25
10,LCSRGNSLM,< -0.25
11,LCTCRKCIRNSMRSKIRH,< -0.25
12,LCVLCTHGCTPPLV,-0.25
13,LCVMLQNFNSYPLAGNFCGL,< -0.25
14,LCVRKG,< -0.25
15,LCVRRSHI,< -0.25
16,LDASAYGIVL,< -0.25
17,LDAVRRGSFPPV,< -0.25
18,LDERLMVWLR,< -0.25
19,LDETN,< -0.25
20,LDFPS,-0.179
21,LDGGTRVL,< -0.25
22,LDHHSLERRITVAPAPPRPP,< -0.25
23,LDIRDVGKSSSRTRGL,-0.229
24,LDIVNYAGARSVEPDTR,< -0.25
25,LDLRLESLRLLSRM,< -0.25

row,Substance,growth estimate
1,LDNAGDRNRCRLCISASGVI,< -0.25
2,LDNLIECPSISDSRMMVPIT,< -0.25
3,LDPDQVHVLASLKIVISECS,< -0.25
4,LDPFETPDFILQCVFGLLTV,< -0.25
5,LDPQLSNGGER,-0.223
6,LDQ,< -0.25
7,LDRAATFPMRGSFLVKLSFG,< -0.25
8,LDRATELYPCHSGIREARIP,< -0.25
9,LDRGEVRR,< -0.25
10,LDS,< -0.25
11,LDSLRAFG,< -0.25
12,LDSQNCRTGLIRGLPATGIA,< -0.25
13,LDSTRYHNEKLTFTDDNSSS,< -0.25
14,LDTLLGAGLQGSGM,< -0.25
15,LDTLRGRGARRFFVQRGAII,< -0.25
16,LDVDLRRRDG,< -0.25
17,LDVIPTRFET,< -0.25
18,LDVPCIDEKLVYGQANWAAP,< -0.25
19,LEADR,< -0.25
20,LEARNSHACDGPSINYHQIH,< -0.253
21,LEAVPL,< -0.25
22,LECKCVLGVIGGLYWVV,< -0.25
23,LECLGSKPAFTWGGQQSSAQ,< -0.25
24,LEDSEHVFWSPMTLGRLNPQ,< -0.25
25,LEEACTGLRALCPRE,< -0.25

row,Substance,growth estimate
1,LEEELLYGGEARRCLAASTM,< -0.25
2,LEEIRFHLEVLSGHELSDFR,-0.123
3,LEFRSSY,< -0.25
4,LEGAT,< -0.25
5,LEGPALDADTLHLEREVFRI,< -0.25
6,LEHDRLPPPREDHGTIHAWS,< -0.25
7,LEKLWGGDRHIKPPGRSYGS,< -0.25
8,LELGK,< -0.25
9,LELNNRAGLWQCGTKSHDAH,< -0.25
10,LEPLW,< -0.25
11,LEPRPSRPERFSNDSCLTYR,< -0.25
12,LEPVREARPLQKEHS,< -0.25
13,LEQRCWNSQME,< -0.25
14,LERRRCVARVR,< -0.25
15,LERWRVTVPTSPS,< -0.25
16,LESCINHTDPLLLCTAPVVD,< -0.25
17,LESGRSHFAWACYAKVGSPA,< -0.25
18,LESSLTGPRPPVVMTLEDES,< -0.25
19,LESWKELTR,< -0.25
20,LETHSGTYAPHGVSPTVSRI,< -0.25
21,LETSPSPNPVYTGGN,< -0.25
22,LETSRDAESAGWVESLGCGT,< -0.25
23,LEYVHPDVQRREADLVVPCL,< -0.25
24,LFCQHRGGF,< -0.25

# Another view of part of the listing above:
row | Substance | growth estimate
6 | LCSARHSSKQGCKGTLSSPK | < -0.25
7 | LCSARLCHRSLNARGVDFPG | < -0.25
8 | LCSGLVAGQIQTR | < -0.25
9 | LCSQESAPSHQINIANST | < -0.25
10 | LCSRGNSLM | < -0.25
11 | LCTCRKCIRNSMRSKIRH | < -0.25
12 | LCVLCTHGCTPPLV | -0.25
13 | LCVMLQNFNSYPLAGNFCGL | < -0.25
14 | LCVRKG | < -0.25
15 | LCVRRSHI | < -0.25
16 | LDASAYGIVL | < -0.25
17 | LDAVRRGSFPPV | < -0.25
18 | LDERLMVWLR | < -0.25
19 | LDETN | < -0.25
20 | LDFPS | -0.179
21 | LDGGTRVL | < -0.25
22 | LDHHSLERRITVAPAPPRPP | < -0.25
23 | LDIRDVGKSSSRTRGL | -0.229
24 | LDIVNYAGARSVEPDTR | < -0.25
25 | LDLRLESLRLLSRM | < -0.25
